PubChem BioAssay AID1671195, Yale University – 2021

Screen: 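Genes whose knockdown alters LDL uptake in liver cancer cells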 (primary screen)
Cells: human Huh7 hepatoma cells
Reagents: siRNA pool against human genes, 18 nM
Timing: about 2 to 2.5 days of knockdown, then 8 h LDL uptake
Challenge: DiI-labelled LDL at 30 µg/ml for 8 h, in lipoprotein-deficient serum medium
Read-out: 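Per-cell DiI-LDL intensity by automated imaging; well means scaled to the plate median and given as a robust z-score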
Reading the numbers: robust z-score: higher = more LDL uptake after knockdown
Call rule: 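Active when two or more replicates show a robust z-score above 2 or below -2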
The deposit covers about 22,000 reagents; below is a random part of them. About 1,510 of them (6.9%) count as active. 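Active includes knockdowns raising or lowering LDL uptake; positive z-scores mean more uptake, negative mean less.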 The numbers tell different reagents against one gene apart.

| target gene | reagent no. | robust z-score, replicate 1 | robust z-score, replicate 2 | robust z-score, replicate 3 | outcome |
| --- | --- | --- | --- | --- | --- |
| LOC389347 (retired record) | 1 | -0.168 | -0.0425 | 0.342 | inactive |
| NUPR1 | 1 | -0.718 | -0.672 | -0.327 | inactive |
| LOC440392 (retired record) | 1 | -0.267 | -0.466 | -0.68 | inactive |
| NAXE | 1 | 4.11 | 1.67 | 3.37 | active |
| BCKDHB | 1 | 1.59 | 1.53 | 1.9 | inactive |
| RBM43 | 1 | -0.651 | -0.567 | -0.552 | inactive |
| MRGPRX3 | 1 | 1.41 | 2.35 | 3.26 | active |
| TMEM60 | 1 | 0.284 | -0.244 | -0.493 | inactive |
| ACADL | 1 | 0.352 | 0.136 | 0.662 | inactive |
| ABCE1 | 1 | -0.791 | -0.992 | -0.828 | inactive |
| LOC339025 (retired record) | 1 | 1.43 | 1.18 | 1.25 | inactive |
| ATP6V1E1 | 1 | 0.998 | 1.29 | 0.457 | inactive |
| TADA2B | 1 | 0.54 | -0.233 | -0.482 | inactive |
| ALX4 | 1 | -0.275 | -0.95 | -0.37 | inactive |
| FCHSD1 | 1 | -0.391 | -0.308 | -0.594 | inactive |
| THAP7 | 1 | 0.232 | -0.37 | -0.845 | inactive |
| TMEM220 | 1 | -0.805 | -0.863 | -1.21 | inactive |
| LRFN3 | 1 | -0.95 | -0.9 | -0.94 | inactive |
| NFRKB | 1 | -0.794 | -1.14 | -0.495 | inactive |
| ZNF800 | 1 | -0.534 | -0.133 | -0.317 | inactive |
| GRPEL1 | 1 | -0.913 | -0.0719 | -0.548 | inactive |
| LOC388735 (retired record) | 1 | -0.844 | -0.656 | -0.961 | inactive |
| FOXP3 | 1 | -0.127 | 0.107 | -0.0194 | inactive |
| IFT122 | 1 | -1.04 | -1.22 | -1.13 | inactive |
| SDC4 | 1 | 0.939 | -0.299 | -0.79 | inactive |
| LOC401500 (retired record) | 1 | -0.906 | -0.835 | -0.616 | inactive |
| TYW2 | 1 | -0.696 | -1.89 | 0.0108 | inactive |
| GSDMD | 1 | -2.18 | -1.88 | -2 | active |
| IGBP1 | 1 | -0.261 | -0.0441 | -0.107 | inactive |
| CDH2 | 1 | 0.464 | 0.446 | 0.126 | inactive |
| IFT74 | 1 | 4.51 | 0.879 | 1.16 | inactive |
| ARSA | 1 | 0.709 | 0.132 | 0.941 | inactive |
| STRBP | 1 | 0.49 | -1.66 | -0.651 | inactive |
| LOC113386 (retired record) | 1 | -0.751 | 0.236 | -0.405 | inactive |
| EMILIN3 | 1 | 1.39 | 0.219 | 1.44 | inactive |
| MIA2 | 1 | 0.393 | 0.371 | -0.0993 | inactive |
| MIA2 | 2 | -0.61 | -0.627 | -0.0456 | inactive |
| TBC1D2 | 1 | -0.769 | -1.07 | -0.698 | inactive |
| TOP6BL | 1 | -2.03 | -2.29 | -1.86 | active |
| TTLL7 | 1 | 0.335 | -0.338 | 0.347 | inactive |
| WSCD2 | 1 | -0.0346 | -1.62 | -1 | inactive |
| NOL4L-DT | 1 | 1.08 | -0.0847 | 1.95 | inactive |
| NKIRAS1 | 1 | -0.467 | -1.42 | 0.361 | inactive |
| LOC390282 | 1 | -0.212 | -0.332 | -0.371 | inactive |
| PPP3CB | 1 | 1.01 | 0.45 | 1.61 | inactive |
| LOC401312 | 1 | 0.0245 | -0.412 | 0.361 | inactive |
| PRSS35 | 1 | -0.109 | -0.309 | 0.193 | inactive |
| RPAP1 | 1 | 0.407 | 0.551 | 0.212 | inactive |
| C7orf25 | 1 | -0.841 | -1.38 | -0.83 | inactive |
| TBC1D12 | 1 | 0.34 | 0.289 | 0.0988 | inactive |
| NLGN1 | 1 | -1.69 | -1.6 | -1.56 | inactive |
| SLC75A1 | 1 | -0.435 | -0.0426 | -0.276 | inactive |
| DISP3 | 1 | -1.69 | -2.29 | -0.311 | inactive |
| CDK1 | 1 | 2.75 | 2.86 | 5.55 | active |
| MAGEA11 | 1 | 0.861 | 0.448 | 0.225 | inactive |
| ZNF818P | 1 | -0.0848 | 0.00383 | 0.089 | inactive |
| DDX20 | 1 | 0.465 | 1.31 | 1.36 | inactive |
| HSPA1L | 1 | 3.22 | 2.96 | 3.12 | active |
| TMEM131L | 1 | -1.47 | -1.01 | -1.71 | inactive |
| KIFC3 | 1 | -0.712 | -1.42 | -1.25 | inactive |
| NAP1L2 | 1 | 1.32 | 1.97 | 1.81 | inactive |
| EIF2S3 | 1 | 0.64 | 0.323 | 0.637 | inactive |
| ZNF670 | 1 | 0.175 | 0.256 | -0.0257 | inactive |
| TRIM40 | 1 | 0.358 | 0.136 | 1.53 | inactive |
| SDCBP | 1 | 0.0363 | 0.176 | 0.235 | inactive |
| BPNT1 | 1 | -0.137 | -0.343 | -0.224 | inactive |
| NRIP1 | 1 | 0.115 | -0.131 | 0.0574 | inactive |
| NPR3 | 1 | 0.781 | -0.511 | -0.153 | inactive |
| NPR3 | 2 | -1.11 | -0.551 | -0.738 | inactive |

A run of entries of the results above, as a working copy:
| target gene | reagent no. | robust z-score, replicate 1 | robust z-score, replicate 2 | robust z-score, replicate 3 | outcome |
| --- | --- | --- | --- | --- | --- |
| NLGN1 | 1 | -1.69 | -1.6 | -1.56 | inactive |
| SLC75A1 | 1 | -0.435 | -0.0426 | -0.276 | inactive |
| DISP3 | 1 | -1.69 | -2.29 | -0.311 | inactive |
| CDK1 | 1 | 2.75 | 2.86 | 5.55 | active |
